This note sets out measurements from PubChem BioAssay AID1347423 (Functional Genomics Laboratory (NCATS/FGL), 2020).

The whole screen tested about 52,000 sequences, of which about 210 (0.4%) were called active.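 Rule for the calls: active = gene whose silencing raises cell survival under the drug, median off-target-corrected z-score across its silencing RNAs 2 or more; inactive = the rest.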 The list shows a part of the results.

A short description of the assay: Resistance to Poly (ADP-Ribose) Polymerase inhibitor: Gene Identification via Genome-wide siRNA Screen. The following applies: mouse BRCA2 R2336H ES cells, olaparib, CellTiter-Glo viability; stronger effect = higher value. The essentials: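 Genome-wide siRNA screen (3 siRNAs/gene, 20 nM) in mouse ES cells carrying hypomorphic BRCA2 R2336H; olaparib 500 nM added 48 h post-transfection, CellTiter-Glo viability 72 h later. Normalized to plate-median negative control; MAD z-scores, gene median, seed-adjusted.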
A general note: In ATP-based viability assays light output follows the ATP content of the culture.
With GGGUGCAUUACCCAGAUAUTT against Olfr1353, the z-score was inactive: 0.599.

With GGAAUAAUCCCAGAAUCAGTT against Stard6, the z-score is inactive: -0.775.

GGAUGCUAUGAGCAACUUUTT against Mc4r: the z-score is inactive: -0.515. Take GGAUGUCGAAGAAACAAAUTT against Ceacam12: the z-score was inactive: 1.8.

For the sequence GGAAAGCUUAUUUUCUCUCTT against Ppp1r1c, the z-score is inactive: 0.178. As to GGAAAAGAAUUGUAUACAGTT against Gprk2l, the z-score was inactive: 0.703.

For the sequence “GGGCAAGUAUGGCUAUGUGTT against 4632424B03Rik”, the z-score was inactive: -1.74. “GGAAAUUCACAAACAUGGATT against 2700085M18Rik”: the z-score is inactive: 0.305. In the case of GGUGUUUUGCUUCCUUUUCTT against Olfr1184, the z-score was inactive: 0.128. The figure for “GGUGGUCAAUCGGAAGCUCTT against B430201G11Rik” is inactive: 0.661; for GCAUUACCUGUAGUCUAUGTT against Itln2 it is inactive: -2.62. The figure for GGACAUAGCAUGGUUCUAATT against Sult4a1 is inactive: -0.348; for GGGAGUAGUAAUUGUACUUTT against Ugt2a2 it is inactive: -0.91. As to GCCGUAUGGCAAGAUUGUCTT against Rbms2, the z-score was inactive: -2.2. Regarding GGACUCCUUAGAGAAACUUTT against Prlpk, the z-score is inactive: -1.39. Take GGUGGAAGGAAAGAGACCUTT against Ian3: the z-score is inactive: 1.18. The result for GCCCUGAAGCCUAUAAUCATT against Nhlrc1 reads inactive: -2.33; that for GGUCAACGUGUAUGUAUUUTT against Lrat, inactive: -1.75; that for GGAAGUCACAAAUAAUUUGTT against Gpiap1, inactive: 0.264. The figure for GGAAAAUCACUGAAAAGUATT against Siat7a is inactive: -0.883; for GGAAUUCAUUGCUAUUAUGTT against Cetn3 it is inactive: 0.183; for GCACAAGUCAAGAGCUACCTT against Ccrk it is inactive: 0.157.

GGUCAAAAGUGCUCUGAAGTT against Olfr447: the z-score is inactive: -0.141.

Turning to GGAUCUGGGAUACCACACATT against Wdr1, the z-score is inactive: -1.82. The figure for “UCUCUUGGUACAUUUGGCATT against 1700073E17Rik” is inactive: -0.787; for GGAGAUCACCUUCCUGAAGTT against Comp it is inactive: 0.243. The result for GGAAUUGGCAUCCUUAAGCTT against Cops3 reads inactive: 0.45; that for GGUGAAAAGAUGCAGGUGATT against Atp1a3, inactive: 1.12. The result for CCCAUCCUAUGUGCCCUAUTT against Krtap13-1 reads inactive: 1.06; that for GGAUGUUCCAUUUCUAAGCTT against Zfp30, inactive: 0.743. Take GGACAGAAACUAAUUGCAUTT against Tmc5: the z-score is inactive: -0.0482. The result for GGAGAAUACCAGCAACAUCTT against Golga5 reads inactive: 0.731; that for GGUCAAUGUGAUUGAGGAUTT against Centb1, inactive: -1.12. On to GAAAUCCAAGAGCAAUGAGTT against LOC56628, for which the z-score was inactive: -2.45. For the sequence GCUAUAGAUUGGCUUUAUGTT against Depdc1a, the z-score is inactive: -0.73. The result for GGAAUUUGAUGAGGAUUUGTT against 3-Sep reads inactive: -0.0602; that for CCCUUUGUGUGGAUUAUAUTT against Sp9, inactive: 1.18. Regarding GGACAUCGUAGAGAAAGUUTT against Msi1h, the z-score is inactive: -0.754. The figure for CGAGCUGUGUUUUUGGCUGTT against Mrpl11 is inactive: 1.28. The figure for GGUUCCUUCGUUGUGUUGATT against Irx3 is inactive: 0.103. As for GCUGGAGCUAUCCAACACUTT against Chst11, the z-score is inactive: 0.113. As for CCUCACUGUAAUGUAACUUTT against Scarf2, the z-score is inactive: 0.294. The result for CCGGAAAAUACGCACUGUATT against Obox6 reads inactive: 1.91. The result for GAAUCUGGUGAAGUAUUAUTT against Phip reads inactive: 0.254; that for “GCCGCUAUGUCACACUAACTT against A830020B06Rik”, inactive: 2.11; that for GCACUUUUCUAGGAGCAGCTT against Arx, inactive: 0.287.

Consider GGGCUGUGGUUUCUAUGACTT against Tpra40, for which the z-score is inactive: -0.591. On to GGUGGCAAAACAGUCUGUATT against Olfr1457, for which the z-score is inactive: -1.25. The figure for GGGACUAUCCACUCACUUUTT against Olfr981 is inactive: -0.0216; for CCAUCACGAGUGAAUUCGATT against Olfr945 it is inactive: -0.125. In the case of GGAGAAGAAAGUGGAGGCATT against Rplp1, the z-score was inactive: -2.14. The figure for GGAGGGUAUUAGUGCACUGTT against Ptpn1 is inactive: -2.12; for “CCACGCUACCUUCAAGAGATT against 1200003C23Rik” it is inactive: 0.253. Take GGAUAUGCACAGACCACCCTT against Ewsr1: the z-score is inactive: -0.301. The result for GGUUGUUCAGUUCAAACUCTT against Dbt reads inactive: 0.861; that for CCCUAAUCACAUUUUGUGATT against Socs5, inactive: 0.47; that for GCCUUGGACUGCUUUGGAUTT against Dnclic1, inactive: -0.368. Regarding GCGGUUCUUACCAAGGACATT against LOC435684, the z-score was inactive: -2.41. The result for “GGGAACUGAAAAAUUUAGATT against 4932412H11Rik” reads inactive: 0.241; that for GGAAAUAAUGCUUAUGGAUTT against Abcb1b, inactive: -0.157. The figure for “GGAGGGCAUGUACUAUGAGTT against 2310051M13Rik” is inactive: -0.142; for GGAAUGAUGAAGAGUGUCCTT against Btla it is inactive: 0.0429; for GCACCUUCCUAAUCACAGCTT against Gpr100 it is inactive: -0.292. For the sequence GGACCUGUUGUCAGACUGCTT against Kif20a, the z-score was inactive: -0.621. The result for GCACCUCUAUUAUAAUAAGTT against Vps13c reads inactive: 0.112.

As to GGGUACCAUAUCCUCACCUTT against Ltbp3, the z-score was inactive: -0.945.

Turning to “CGCAUGCCUGUAAAAUAAATT against 2310057M21Rik”, the z-score is inactive: -0.688.
